The text below walks through data of paper PMC12441119.

Sequences of proteins named here, by UniProt entry; tags and fusion partners are left off. A change or cut given only in a name is not applied to a line headed by its entry.
UniProt Q96EP0: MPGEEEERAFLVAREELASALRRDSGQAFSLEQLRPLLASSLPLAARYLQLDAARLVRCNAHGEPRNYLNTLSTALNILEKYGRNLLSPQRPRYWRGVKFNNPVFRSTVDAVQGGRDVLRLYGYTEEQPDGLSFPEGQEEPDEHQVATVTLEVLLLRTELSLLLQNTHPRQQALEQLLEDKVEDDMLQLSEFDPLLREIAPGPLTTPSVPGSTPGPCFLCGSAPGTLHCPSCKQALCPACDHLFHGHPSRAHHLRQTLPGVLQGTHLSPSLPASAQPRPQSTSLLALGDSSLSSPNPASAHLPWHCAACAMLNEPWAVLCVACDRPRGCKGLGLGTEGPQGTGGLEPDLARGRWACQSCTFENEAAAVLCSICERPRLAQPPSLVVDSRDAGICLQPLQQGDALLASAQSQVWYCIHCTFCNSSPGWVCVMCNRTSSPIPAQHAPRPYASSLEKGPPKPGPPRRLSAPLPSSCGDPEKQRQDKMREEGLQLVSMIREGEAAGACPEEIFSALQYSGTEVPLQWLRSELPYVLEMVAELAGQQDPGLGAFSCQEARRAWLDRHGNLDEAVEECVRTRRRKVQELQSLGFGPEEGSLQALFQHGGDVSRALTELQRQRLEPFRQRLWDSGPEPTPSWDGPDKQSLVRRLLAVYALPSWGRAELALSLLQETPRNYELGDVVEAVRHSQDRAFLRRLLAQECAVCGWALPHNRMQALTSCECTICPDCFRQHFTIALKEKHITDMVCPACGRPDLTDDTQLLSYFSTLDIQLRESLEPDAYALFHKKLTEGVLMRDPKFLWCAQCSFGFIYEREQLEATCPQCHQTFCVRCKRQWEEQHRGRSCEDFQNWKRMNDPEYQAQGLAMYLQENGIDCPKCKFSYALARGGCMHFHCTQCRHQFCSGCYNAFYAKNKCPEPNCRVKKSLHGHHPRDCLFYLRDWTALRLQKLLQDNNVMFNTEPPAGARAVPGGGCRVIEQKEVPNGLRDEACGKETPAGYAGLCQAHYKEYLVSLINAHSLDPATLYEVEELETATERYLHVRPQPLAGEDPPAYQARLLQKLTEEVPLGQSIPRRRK

Assay [1] deals with T1, GFP-STK4 (human) (UniProt Q13043).
T1 sequence: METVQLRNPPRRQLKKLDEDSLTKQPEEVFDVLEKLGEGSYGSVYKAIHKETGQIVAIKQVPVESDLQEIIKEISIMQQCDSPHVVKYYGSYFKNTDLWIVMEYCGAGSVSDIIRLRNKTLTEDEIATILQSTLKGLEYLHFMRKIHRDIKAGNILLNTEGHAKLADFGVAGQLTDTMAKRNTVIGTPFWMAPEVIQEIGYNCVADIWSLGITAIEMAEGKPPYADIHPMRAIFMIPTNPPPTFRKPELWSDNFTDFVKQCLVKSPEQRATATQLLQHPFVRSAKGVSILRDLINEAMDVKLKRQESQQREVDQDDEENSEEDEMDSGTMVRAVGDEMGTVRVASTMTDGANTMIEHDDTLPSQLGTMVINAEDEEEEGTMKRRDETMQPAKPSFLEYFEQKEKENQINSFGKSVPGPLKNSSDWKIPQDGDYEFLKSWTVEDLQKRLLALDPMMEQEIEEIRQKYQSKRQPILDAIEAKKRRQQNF
In words: co-IP; HEK293T co-transfected with FLAG-HOIP and GFP-STK4 or mutants; lysate on anti-GFP antibody-agarose; blots with GFP and FLAG antibodies.

The target in assay [2] is HOIP (residues 854–1072) (UniProt Q96EP0). Put plainly: AUC; sedimentation velocity, 42,000 rpm, 20 °C, c(s) distribution (SEDFIT); mixtures of HOIP RING2-LDD with STK4 KD at molar ratios 1:1 or 1:5; both purified.

Results are given in words; binding and its absence hold for the method and conditions named. For some assays here: In cells and extracts the contact can be indirect. Some binding calls cover weakened binding; strength is not graded here. For some assays here: Where a sequence is shown, tags or fusion partners need not be part of it.

Take “FLAG-HOIP (from UniProt Q96EP0 1-1072) (enzyme)”: in assay [1], the binding entry is reported as “binds”.
On to “HOIP (residues 854–1072) (from UniProt Q96EP0 854-1072) (domain or fragment)”, for which, in assay [2], the binding entry is listed as “no binding”.
